Source: patent US20250340651A1
These are yes or no findings as the source states them, for the method shown. A result given as binding can be weak or reduced; the word gives no strength.

How the values were obtained:
[1] = target: Recombinant MICA*02 protein; assay: ELISA on coated recombinant antigen (1 µg/ml), goat anti-mouse IgG-HRP, OD 450 nm
[2] = target: Recombinant MICA*04 protein; assay: as above
[3] = target: Recombinant MICA*08 protein; assay: as above
[4] = target: Recombinant MICA*09 protein; assay: as above
[5] = target: Recombinant MICA*02 protein; assay: ELISA on plate-coated recombinant protein
[6] = target: Recombinant MICA*04 protein; assay: ELISA on plate-coated recombinant protein
[7] = target: Recombinant MICA*08 protein; assay: ELISA on plate-coated recombinant protein
[8] = target: Recombinant MICA*09 protein; assay: ELISA on plate-coated recombinant protein
MICA *04-His protein [9] = assay: BLI epitope binning on MICA *04-His immobilised on Ni-NTA sensors; competitors PDI-1 and 3F9
MICA *04-His protein [10] = assay: BLI epitope binning on MICA *04-His immobilised on Ni-NTA sensors; competitor PDI-1
[11] = target: MICA*08 expressed on TRAMP-C2 cells (TC2-MICA-08); assay: flow cytometry on TC2-MICA-08 cells against parental TC2 cells
[12] = target: MICA*08 expressed on TRAMP-C2 cells (TC2-MICA-08); assay: flow cytometry on TC2-MICA-08 cells against parental TC2 cells; 500 ng antibody in 100 µl
[13] = target: MICA*08 expressed on TRAMP-C2 cells (TC2-MICA-08); assay: flow cytometry on TC2-MICA-08 cells against parental TC2 cells, 500 ng antibody in 100 µl, PE goat anti-mouse IgG

Measured: binding

B1: 16F10.C12 (antibody, V domains shown)
VH: EVQLQESGPGLVAPSQSLSITCTVSGFSLTAFGVNWVRQPPGKGLEWLGMIWGDGNTDYNSTLRSRLSISKDNSKSQVFLKLNSLQTDDTARYFCARETYYGNYAGLGYWGQGTLVTVSA
VL: QIVLTQSPAIMSASIGERVTMTCTASSSVSSNYLHWYQQKPRSSPKLWIYTTSNLASGVPTRFSGSGSGTSYSLTISSMEAEDAATYYCHQFHRSPFTFGSGTKLEIK
binds: [1] | [2] | [3] | [4] | [5] | [6] | [7] | [8] | MICA *04-His protein [9]

B2: 3F9.E4 (antibody, V domains shown)
VH: EVQLQESGEGLVKPGGSLKLSCAASGFTFSNYAMSWVRQTPEKRLEWVAYISPGGDYIYYADTVKGRFTISRDNARNTLYLQMSSLKSEDTAMYYCTTDRRHYGSYAMDYWGQGISVTVSS
VL: DIVMTQAAPSVPVTPGESVSISCRSSKSLLHSNGNTYLYWFLQRPGQSPQLLIYRMSNLASGVPDRFSGSGSGTAFTLRISRVEAEDVGVYYCMQHLEYPFTFGSGTKLEIK
binds: MICA *04-His protein [10] | [1] | [2] | [3] | [4] | [5] | [6] | [7] | [8] | [11] | [12] | [13]
